We go through 35 targets from the supplement of paper PMC12067093, “Discovery and optimisation of a covalent ligand for TRIM25 and its application to targeted protein ubiquitination” (Chemical Science, 2025).

Amino acid sequences for entries named in this document (tags omitted). A change or cut given only in a name is not applied to a line headed by its entry.
UniProt P42285: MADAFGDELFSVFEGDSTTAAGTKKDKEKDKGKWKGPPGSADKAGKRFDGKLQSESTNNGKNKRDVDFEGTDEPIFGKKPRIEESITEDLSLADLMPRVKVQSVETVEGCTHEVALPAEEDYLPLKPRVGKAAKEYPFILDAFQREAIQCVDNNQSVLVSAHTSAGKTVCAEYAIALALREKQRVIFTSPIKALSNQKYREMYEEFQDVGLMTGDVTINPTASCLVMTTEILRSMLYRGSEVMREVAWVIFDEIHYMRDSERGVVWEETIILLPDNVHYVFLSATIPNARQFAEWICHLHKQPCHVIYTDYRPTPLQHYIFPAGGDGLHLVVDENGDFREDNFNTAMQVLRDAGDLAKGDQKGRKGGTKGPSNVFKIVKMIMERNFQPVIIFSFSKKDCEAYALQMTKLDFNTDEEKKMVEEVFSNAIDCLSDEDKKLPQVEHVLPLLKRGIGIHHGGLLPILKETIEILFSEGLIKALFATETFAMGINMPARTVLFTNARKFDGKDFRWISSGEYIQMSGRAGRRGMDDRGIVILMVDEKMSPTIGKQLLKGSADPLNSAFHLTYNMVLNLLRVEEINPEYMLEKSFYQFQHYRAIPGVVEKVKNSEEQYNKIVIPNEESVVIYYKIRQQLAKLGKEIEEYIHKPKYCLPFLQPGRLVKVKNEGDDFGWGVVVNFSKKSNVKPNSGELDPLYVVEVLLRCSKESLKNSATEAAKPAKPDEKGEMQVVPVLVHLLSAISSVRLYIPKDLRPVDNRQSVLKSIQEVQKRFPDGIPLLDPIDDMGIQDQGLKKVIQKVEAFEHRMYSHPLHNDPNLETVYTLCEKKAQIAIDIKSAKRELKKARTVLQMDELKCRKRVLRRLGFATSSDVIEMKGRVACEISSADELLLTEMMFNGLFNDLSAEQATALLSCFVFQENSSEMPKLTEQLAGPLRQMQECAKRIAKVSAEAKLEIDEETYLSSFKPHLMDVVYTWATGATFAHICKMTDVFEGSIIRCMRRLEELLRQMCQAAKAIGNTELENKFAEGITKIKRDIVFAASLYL
UniProt Q8N5Y2: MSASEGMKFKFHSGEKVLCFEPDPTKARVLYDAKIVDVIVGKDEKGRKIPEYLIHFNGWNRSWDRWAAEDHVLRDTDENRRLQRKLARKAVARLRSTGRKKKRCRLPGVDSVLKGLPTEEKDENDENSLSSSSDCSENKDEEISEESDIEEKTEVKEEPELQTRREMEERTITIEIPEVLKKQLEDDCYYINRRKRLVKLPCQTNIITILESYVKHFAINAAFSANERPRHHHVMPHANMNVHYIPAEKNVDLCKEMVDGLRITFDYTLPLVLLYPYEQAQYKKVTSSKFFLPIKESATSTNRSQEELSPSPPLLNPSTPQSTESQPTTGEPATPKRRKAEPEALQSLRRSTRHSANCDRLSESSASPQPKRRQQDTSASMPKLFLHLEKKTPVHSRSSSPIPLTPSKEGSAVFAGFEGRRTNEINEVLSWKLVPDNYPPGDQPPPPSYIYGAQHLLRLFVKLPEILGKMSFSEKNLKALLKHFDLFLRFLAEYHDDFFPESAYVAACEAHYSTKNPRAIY
UniProt Q9BT17: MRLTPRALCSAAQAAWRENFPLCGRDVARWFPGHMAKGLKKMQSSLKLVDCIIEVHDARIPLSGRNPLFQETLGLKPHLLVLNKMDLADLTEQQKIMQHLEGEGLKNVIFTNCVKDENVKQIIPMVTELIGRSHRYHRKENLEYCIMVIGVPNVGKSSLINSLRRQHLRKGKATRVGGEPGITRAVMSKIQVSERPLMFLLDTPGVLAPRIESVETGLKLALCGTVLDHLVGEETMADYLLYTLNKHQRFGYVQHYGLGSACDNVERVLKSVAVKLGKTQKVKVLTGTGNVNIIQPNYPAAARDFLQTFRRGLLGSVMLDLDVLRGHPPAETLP
UniProt O75592: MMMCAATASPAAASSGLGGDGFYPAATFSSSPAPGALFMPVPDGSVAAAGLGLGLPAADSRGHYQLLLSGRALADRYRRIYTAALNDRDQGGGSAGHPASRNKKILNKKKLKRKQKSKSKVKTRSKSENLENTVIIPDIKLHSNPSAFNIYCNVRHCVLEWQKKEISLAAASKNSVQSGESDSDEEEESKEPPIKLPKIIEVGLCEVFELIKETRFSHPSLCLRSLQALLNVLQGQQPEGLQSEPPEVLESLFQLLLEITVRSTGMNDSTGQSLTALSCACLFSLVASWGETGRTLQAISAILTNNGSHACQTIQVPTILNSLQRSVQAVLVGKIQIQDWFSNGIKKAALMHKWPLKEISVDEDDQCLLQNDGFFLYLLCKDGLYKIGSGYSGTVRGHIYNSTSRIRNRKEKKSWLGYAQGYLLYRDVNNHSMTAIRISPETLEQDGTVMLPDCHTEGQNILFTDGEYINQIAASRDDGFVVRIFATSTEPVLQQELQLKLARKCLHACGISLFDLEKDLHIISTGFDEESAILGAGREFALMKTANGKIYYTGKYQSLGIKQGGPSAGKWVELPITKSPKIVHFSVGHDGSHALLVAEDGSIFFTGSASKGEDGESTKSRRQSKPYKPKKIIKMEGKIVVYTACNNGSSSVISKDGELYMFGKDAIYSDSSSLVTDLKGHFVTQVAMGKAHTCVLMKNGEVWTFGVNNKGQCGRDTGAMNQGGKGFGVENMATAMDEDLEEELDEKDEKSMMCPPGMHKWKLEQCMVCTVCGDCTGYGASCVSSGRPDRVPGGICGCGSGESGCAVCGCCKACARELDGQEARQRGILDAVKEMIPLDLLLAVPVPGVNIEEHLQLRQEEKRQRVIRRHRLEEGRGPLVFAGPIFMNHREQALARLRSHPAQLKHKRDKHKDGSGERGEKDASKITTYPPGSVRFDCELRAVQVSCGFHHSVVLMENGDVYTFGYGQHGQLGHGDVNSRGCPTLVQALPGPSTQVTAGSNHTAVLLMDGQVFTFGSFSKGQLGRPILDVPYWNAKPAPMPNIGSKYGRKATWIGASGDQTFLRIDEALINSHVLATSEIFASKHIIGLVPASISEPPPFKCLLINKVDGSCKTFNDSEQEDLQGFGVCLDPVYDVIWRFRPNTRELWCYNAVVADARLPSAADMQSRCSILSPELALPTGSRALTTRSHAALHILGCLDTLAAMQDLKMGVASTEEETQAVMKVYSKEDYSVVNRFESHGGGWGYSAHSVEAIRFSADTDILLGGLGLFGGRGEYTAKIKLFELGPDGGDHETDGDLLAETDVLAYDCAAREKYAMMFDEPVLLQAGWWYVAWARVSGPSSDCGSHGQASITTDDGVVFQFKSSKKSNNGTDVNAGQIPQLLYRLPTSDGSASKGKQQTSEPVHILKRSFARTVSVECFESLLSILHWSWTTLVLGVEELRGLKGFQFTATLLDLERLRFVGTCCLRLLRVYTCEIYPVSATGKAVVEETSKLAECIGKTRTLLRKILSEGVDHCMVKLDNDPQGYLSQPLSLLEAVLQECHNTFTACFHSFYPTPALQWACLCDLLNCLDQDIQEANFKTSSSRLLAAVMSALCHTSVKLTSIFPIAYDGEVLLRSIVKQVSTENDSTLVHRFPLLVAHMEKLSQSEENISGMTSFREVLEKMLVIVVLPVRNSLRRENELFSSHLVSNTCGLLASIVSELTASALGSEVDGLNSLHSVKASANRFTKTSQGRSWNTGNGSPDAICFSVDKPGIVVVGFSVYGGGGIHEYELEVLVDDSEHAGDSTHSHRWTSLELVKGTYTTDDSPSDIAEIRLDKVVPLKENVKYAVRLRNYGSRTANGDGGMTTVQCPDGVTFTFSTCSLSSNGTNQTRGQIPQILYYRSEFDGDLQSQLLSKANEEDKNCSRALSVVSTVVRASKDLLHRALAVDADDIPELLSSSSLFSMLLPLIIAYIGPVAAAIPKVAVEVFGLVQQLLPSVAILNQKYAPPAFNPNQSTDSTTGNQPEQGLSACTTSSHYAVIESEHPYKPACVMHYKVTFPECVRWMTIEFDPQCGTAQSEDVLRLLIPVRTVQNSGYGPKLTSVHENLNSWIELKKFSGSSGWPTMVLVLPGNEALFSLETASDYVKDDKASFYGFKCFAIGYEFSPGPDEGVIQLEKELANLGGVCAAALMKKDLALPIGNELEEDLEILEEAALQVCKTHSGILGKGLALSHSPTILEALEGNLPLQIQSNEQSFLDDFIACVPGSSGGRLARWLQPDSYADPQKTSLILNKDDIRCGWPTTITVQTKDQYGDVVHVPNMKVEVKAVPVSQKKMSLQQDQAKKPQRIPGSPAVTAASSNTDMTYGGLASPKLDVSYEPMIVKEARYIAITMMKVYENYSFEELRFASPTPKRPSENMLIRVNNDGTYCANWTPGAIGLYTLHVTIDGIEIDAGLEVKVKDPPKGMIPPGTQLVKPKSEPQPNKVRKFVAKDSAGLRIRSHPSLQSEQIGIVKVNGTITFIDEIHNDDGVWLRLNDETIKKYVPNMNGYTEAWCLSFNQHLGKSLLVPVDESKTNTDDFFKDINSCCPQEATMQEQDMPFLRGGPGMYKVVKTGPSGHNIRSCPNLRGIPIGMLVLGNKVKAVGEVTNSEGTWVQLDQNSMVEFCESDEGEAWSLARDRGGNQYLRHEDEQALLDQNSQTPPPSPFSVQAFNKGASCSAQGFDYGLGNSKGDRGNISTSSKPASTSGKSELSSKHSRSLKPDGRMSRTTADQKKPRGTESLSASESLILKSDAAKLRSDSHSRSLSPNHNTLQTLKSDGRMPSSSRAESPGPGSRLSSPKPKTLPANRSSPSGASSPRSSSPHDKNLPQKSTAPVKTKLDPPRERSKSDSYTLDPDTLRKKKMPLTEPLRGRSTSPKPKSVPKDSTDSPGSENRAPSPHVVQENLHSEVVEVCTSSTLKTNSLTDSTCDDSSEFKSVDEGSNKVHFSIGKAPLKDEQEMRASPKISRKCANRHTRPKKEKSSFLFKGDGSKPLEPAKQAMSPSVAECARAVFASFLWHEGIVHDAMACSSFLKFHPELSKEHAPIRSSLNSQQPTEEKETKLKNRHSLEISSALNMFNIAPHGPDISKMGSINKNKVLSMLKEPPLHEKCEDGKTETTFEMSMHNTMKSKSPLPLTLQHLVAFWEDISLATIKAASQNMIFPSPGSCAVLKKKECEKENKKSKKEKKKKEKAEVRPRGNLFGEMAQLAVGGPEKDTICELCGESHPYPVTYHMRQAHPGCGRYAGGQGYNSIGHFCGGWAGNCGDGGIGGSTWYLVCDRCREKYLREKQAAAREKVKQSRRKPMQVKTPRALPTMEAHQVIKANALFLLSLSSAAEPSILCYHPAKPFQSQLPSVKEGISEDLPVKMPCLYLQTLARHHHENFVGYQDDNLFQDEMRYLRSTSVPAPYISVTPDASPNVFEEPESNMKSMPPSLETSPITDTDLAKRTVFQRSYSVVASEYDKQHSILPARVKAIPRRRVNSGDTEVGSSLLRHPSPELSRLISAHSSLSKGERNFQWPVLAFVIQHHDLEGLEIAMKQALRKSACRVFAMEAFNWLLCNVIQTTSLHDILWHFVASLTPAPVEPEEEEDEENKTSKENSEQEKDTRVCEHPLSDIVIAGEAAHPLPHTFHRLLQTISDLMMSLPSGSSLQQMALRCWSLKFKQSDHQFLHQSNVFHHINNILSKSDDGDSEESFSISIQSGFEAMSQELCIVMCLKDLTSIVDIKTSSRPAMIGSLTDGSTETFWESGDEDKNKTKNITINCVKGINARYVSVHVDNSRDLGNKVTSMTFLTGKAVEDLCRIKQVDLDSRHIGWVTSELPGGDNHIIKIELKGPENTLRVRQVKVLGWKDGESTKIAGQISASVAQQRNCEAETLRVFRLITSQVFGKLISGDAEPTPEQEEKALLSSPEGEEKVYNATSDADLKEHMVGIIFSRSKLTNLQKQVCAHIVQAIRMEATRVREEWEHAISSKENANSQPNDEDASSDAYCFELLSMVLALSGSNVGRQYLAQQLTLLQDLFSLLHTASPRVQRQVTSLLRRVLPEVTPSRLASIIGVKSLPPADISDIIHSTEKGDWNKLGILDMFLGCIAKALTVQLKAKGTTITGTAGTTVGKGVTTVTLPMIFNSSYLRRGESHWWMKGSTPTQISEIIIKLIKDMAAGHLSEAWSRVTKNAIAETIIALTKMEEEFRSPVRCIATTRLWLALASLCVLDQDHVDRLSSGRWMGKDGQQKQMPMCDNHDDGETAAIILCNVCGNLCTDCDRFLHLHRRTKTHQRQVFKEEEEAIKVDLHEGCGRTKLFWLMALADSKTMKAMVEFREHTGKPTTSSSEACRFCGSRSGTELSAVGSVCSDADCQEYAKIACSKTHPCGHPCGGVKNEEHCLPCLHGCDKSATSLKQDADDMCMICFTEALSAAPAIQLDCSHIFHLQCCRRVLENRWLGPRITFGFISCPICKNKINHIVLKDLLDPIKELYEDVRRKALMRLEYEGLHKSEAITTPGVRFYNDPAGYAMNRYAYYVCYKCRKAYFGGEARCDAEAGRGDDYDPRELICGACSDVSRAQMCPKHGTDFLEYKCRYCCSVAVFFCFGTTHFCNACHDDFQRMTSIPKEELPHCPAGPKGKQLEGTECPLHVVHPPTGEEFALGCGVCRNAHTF

The list shows a part of the results.
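Note: competitive profiling in live THP-1 cells: cysteine peptides tagged with an iodoacetamide desthiobiotin (IA-DTB) probe, intensity after compound treatment relative to DMSO-treated cells.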

Compound in one assay: Cc1cc(ccc1-c1ccccc1)C(=O)N1CCCN(CC1)C(=O)CCl [compound 10]
Description: probe-labelled cysteine peptide fold change vs DMSO (competition) (log2 fold change); higher = less target engagement (more negative = stronger competition). Conditions: 10 µM; THP-1; incubation time: 4 h.
For the target “MYBBP1A_Q9BQG0_305_MQFWPASYLCFR (UniProt Q9BQG0)”, the “probe-labelled cysteine peptide fold change” value was -0.0172.
Consider “MRPS30_Q9NP92_204_CPVHFYWVR (UniProt Q9NP92)”, for which the “probe-labelled cysteine peptide fold change” value was 0.202.
On the same count and under the same terms, the result for “MTMR6_Q9Y217_88_DCHDIYNSLLQLSK (UniProt Q9Y217)” reads 0.0931; that for “MSH3_P20585_274_ELNIYCHLDHNFMTASIPTHR (UniProt P20585)”, -0.0498; that for “MTHFD1L_Q6UB35_778_EYTEENIQLVADGCCNLQK (UniProt Q6UB35)”, -0.00955.
Same read-out and setting: the value for “MYH9_P35579_896_LQLQEQLQAETELCAEAEELR (UniProt P35579)” was 0.0679; that for “MSRB2_Q9Y3D2_169_FCINSVALK (UniProt Q9Y3D2)” was -0.137.
Regarding “MTHFD1_P11586_236_GEWIKPGAIVIDCGINYVPDDK (UniProt P11586)”, the “probe-labelled cysteine peptide fold change” value amounted to 0.183.
The same measure, in the same setting: the value for “MSL3P1_P0C860_283_SSPHTANCDR (UniProt P0C860)” was -0.254.
The same measure, in the same setting: the result for “MTHFD1_P11586_147_GDLNDCFIPCTPK (UniProt P11586)” reads -0.0576; that for “MVP_Q14764_59_HYCTVANPVSR (UniProt Q14764)”, -0.0627; that for “MTPAP_Q9NVV4_82_TVLIHCPEK (UniProt Q9NVV4)”, 0.09.
Same read-out and setting: the value for “MVB12A_Q96EY5_90_SPLPLGFSPVCDPMDSK (UniProt Q96EY5)” was -0.183; that for “MRPS18A_Q9NVS2_186_DNVCYSR (UniProt Q9NVS2)” was -0.0735.
Take “MSH2_P43246_176_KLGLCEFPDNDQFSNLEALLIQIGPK (UniProt P43246)”: the “probe-labelled cysteine peptide fold change” value was -0.0909.
In the case of “MTO1_Q9Y2Z2_707_TDQYLCDADR (UniProt Q9Y2Z2)”, the “probe-labelled cysteine peptide fold change” value is -0.58.
Take “MYBBP1A_Q9BQG0_678_SVFGHICSHLTPR (UniProt Q9BQG0)”: the “probe-labelled cysteine peptide fold change” value came to 0.192.
“MTHFD1L_Q6UB35_828_AGAFDAVPCYHWSVGGK (UniProt Q6UB35)”: the “probe-labelled cysteine peptide fold change” value stood at 0.136.
The same measure, in the same setting: the result for “MTREX_P42285_399_DCEAYALQMTK (UniProt P42285)” reads -0.242; that for “MRPS35_P82673_130_DFCTEWPAALDSDEK (UniProt P82673)”, -0.148; that for “MTHFD1L_Q6UB35_291_LHEADIVVLGSPKPEEIPLTWIQPGTTVLNCSHDFLSGK (UniProt Q6UB35)”, 0.156.
Same read-out and setting: the value for “MTA3_Q9BTC8_109_CSVALLNETESVLSYLDK (UniProt Q9BTC8)” was 0.791.
Take “MSL3_Q8N5Y2_358_HSANCDR (UniProt Q8N5Y2)”: the “probe-labelled cysteine peptide fold change” value was -0.00163.
On the same count and under the same terms, the value for “MSH2_P43246_822_GVCDQSFGIHVAELANFPK (UniProt P43246)” was -0.0886; that for “MTM1_Q13496_242_CSQPLVGMSGKR (UniProt Q13496)” was -0.443.
The same measure, in the same setting: the result for “MTPAP_Q9NVV4_242_LGCDLDMFLDLDETR (UniProt Q9NVV4)” reads 0.0471; that for “MTA2_O94776_261_AMSTLVPQGGPVLCR (UniProt O94776)”, -0.233.
In the case of “MSN_P26038_117_EGILNDDIYCPPETAVLLASYAVQSK (UniProt P26038)”, the “probe-labelled cysteine peptide fold change” value was -0.0133.
Still for that read-out and setting: the value for “MTG1_Q9BT17_113_NVIFTNCVK (UniProt Q9BT17)” was 0.00792; that for “MYCBP2_O75592_3786_NITINCVK (UniProt O75592)” was -0.699.
Still for that read-out and setting: the value for MTF2_Q9Y483_219_MLQCCK (UniProt Q9Y483) was 0.0379; that for “MUT_P22033_433_VADPWGGSYMMECLTNDVYDAALK (UniProt P22033)” was 0.174.
The same measure, in the same setting: the value for “MTMR12_Q9C0I1_694_HHSQQAPQAEAPCLLR (UniProt Q9C0I1)” was 0.0393.
Turning to “MRTO4_Q9UKD2_176_GVVTLLSDYEVCK (UniProt Q9UKD2)”, the “probe-labelled cysteine peptide fold change” value came to 0.0175.
Still for that read-out and setting: the value for “MYCBP2_O75592_4578_ELICGACSDVSR (UniProt O75592)” was 0.199.

Staying with this assay, now noted: 50 µM; THP-1; incubation time: 4 h.
“MYBBP1A_Q9BQG0_305_MQFWPASYLCFR (UniProt Q9BQG0)”: the “probe-labelled cysteine peptide fold change” value stood at 0.914.
The same measure, in the same setting: the value for “MRPS30_Q9NP92_204_CPVHFYWVR (UniProt Q9NP92)” was 0.164.
The same measure, in the same setting: the value for “MTMR6_Q9Y217_88_DCHDIYNSLLQLSK (UniProt Q9Y217)” was -0.172; that for “MSH3_P20585_274_ELNIYCHLDHNFMTASIPTHR (UniProt P20585)” was 0.018; that for “MTHFD1L_Q6UB35_778_EYTEENIQLVADGCCNLQK (UniProt Q6UB35)” was -0.38.
Still for that read-out and setting: the value for “MYH9_P35579_896_LQLQEQLQAETELCAEAEELR (UniProt P35579)” was 0.0431; that for “MSRB2_Q9Y3D2_169_FCINSVALK (UniProt Q9Y3D2)” was -0.73.
For the target “MTHFD1_P11586_236_GEWIKPGAIVIDCGINYVPDDK (UniProt P11586)”, the “probe-labelled cysteine peptide fold change” value was 0.298.
With “MSL3P1_P0C860_283_SSPHTANCDR (UniProt P0C860)”, the “probe-labelled cysteine peptide fold change” value was -0.68.
Same read-out and setting: the value for “MTHFD1_P11586_147_GDLNDCFIPCTPK (UniProt P11586)” was -0.266; that for “MVP_Q14764_59_HYCTVANPVSR (UniProt Q14764)” was 0.0233; that for “MTPAP_Q9NVV4_82_TVLIHCPEK (UniProt Q9NVV4)” was -0.111.
For “MVB12A_Q96EY5_90_SPLPLGFSPVCDPMDSK (UniProt Q96EY5)”, the “probe-labelled cysteine peptide fold change” value was -0.186.
On to “MRPS18A_Q9NVS2_186_DNVCYSR (UniProt Q9NVS2)”, for which the “probe-labelled cysteine peptide fold change” value is -0.099.
For “MSH2_P43246_176_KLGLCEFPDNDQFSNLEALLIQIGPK (UniProt P43246)”, the “probe-labelled cysteine peptide fold change” value is -0.00623.
On to “MTO1_Q9Y2Z2_707_TDQYLCDADR (UniProt Q9Y2Z2)”, for which the “probe-labelled cysteine peptide fold change” value is -0.982.
Regarding “MYBBP1A_Q9BQG0_678_SVFGHICSHLTPR (UniProt Q9BQG0)”, the “probe-labelled cysteine peptide fold change” value came to 0.148.
For the target “MTHFD1L_Q6UB35_828_AGAFDAVPCYHWSVGGK (UniProt Q6UB35)”, the “probe-labelled cysteine peptide fold change” value is -0.0934.
On the same count and under the same terms, the value for “MTREX_P42285_399_DCEAYALQMTK (UniProt P42285)” was 0.309.
On the same count and under the same terms, the result for “MRPS35_P82673_130_DFCTEWPAALDSDEK (UniProt P82673)” reads -0.238; that for “MTHFD1L_Q6UB35_291_LHEADIVVLGSPKPEEIPLTWIQPGTTVLNCSHDFLSGK (UniProt Q6UB35)”, 0.392.
The same measure, in the same setting: the value for “MTA3_Q9BTC8_109_CSVALLNETESVLSYLDK (UniProt Q9BTC8)” was 0.971; that for “MSL3_Q8N5Y2_358_HSANCDR (UniProt Q8N5Y2)” was -0.184.
Turning to “MSH2_P43246_822_GVCDQSFGIHVAELANFPK (UniProt P43246)”, the “probe-labelled cysteine peptide fold change” value is 0.121.
Take “MTM1_Q13496_242_CSQPLVGMSGKR (UniProt Q13496)”: the “probe-labelled cysteine peptide fold change” value is -0.623.
As to “MTPAP_Q9NVV4_242_LGCDLDMFLDLDETR (UniProt Q9NVV4)”, the “probe-labelled cysteine peptide fold change” value was found to be 0.0502.
On the same count and under the same terms, the result for “MTA2_O94776_261_AMSTLVPQGGPVLCR (UniProt O94776)” reads 0.122.
On the same count and under the same terms, the result for “MSN_P26038_117_EGILNDDIYCPPETAVLLASYAVQSK (UniProt P26038)” reads -0.24; that for “MTG1_Q9BT17_113_NVIFTNCVK (UniProt Q9BT17)”, 0.0767.
On to “MYCBP2_O75592_3786_NITINCVK (UniProt O75592)”, for which the “probe-labelled cysteine peptide fold change” value was -0.362.
For the target MTF2_Q9Y483_219_MLQCCK (UniProt Q9Y483), the “probe-labelled cysteine peptide fold change” value is -0.212.
“MUT_P22033_433_VADPWGGSYMMECLTNDVYDAALK (UniProt P22033)”: the “probe-labelled cysteine peptide fold change” value is 0.0326.
Consider “MTMR12_Q9C0I1_694_HHSQQAPQAEAPCLLR (UniProt Q9C0I1)”, for which the “probe-labelled cysteine peptide fold change” value was -0.559.
Still for that read-out and setting: the value for “MRTO4_Q9UKD2_176_GVVTLLSDYEVCK (UniProt Q9UKD2)” was 0.0303; that for “MYCBP2_O75592_4578_ELICGACSDVSR (UniProt O75592)” was -0.223.
